Data from patent publication US7560567B2, “2-pyridinylethylbenzamide derivatives” (Bayer Cropscience S.A., priority 2003, dated 2009).
Some entries share one result that the patent states for a list of compounds.

Key:
Peronospora brassicae = assay: In vivo test on Peronospora brassicae (cabbage downy mildew), cabbage plants, preventive spray; conditions: 330 ppm; cabbage plants (Eminence); treated 24 h before contamination; grading 5 days after contamination vs control plants
[1] = system: Erysiphe graminis f. sp. tritici; assay: In vivo test on Erysiphe graminis f. sp. tritici (powdery mildew of wheat), wheat plants, preventive spray; conditions: 330 ppm; wheat plants (Audace); treated 24 h before contamination; grading 7 to 14 days after contamination vs control plants
Botrytis cinerea = assay: In vivo test on Botrytis cinerea (gherkin grey mould), gherkin plants, preventive spray; conditions: 330 ppm; gherkin plants (Petit Vert de Paris); treated 24 h before contamination; grading 5/7 days after contamination vs control plants
Method: The active ingredient tested is prepared by potter homogenisation in a concentrated suspension type formulation at 100 g/l. This suspension is then diluted with water to obtain the desired active material concentration.
Gherkin plants (Petit Vert de Paris variety) in starter cups, sown on a 50/50 peat soil-pozzolana substrate and grown at 18-20° C., are treated at the cotyledon Z11 stage by spraying with the aqueous suspension described above. Plants, used as controls, are treated with an aqueous solution not containing the active material.
After 24 hours, the plants are contaminated by depositing drops of an aqueous suspension of Botrytis cinerea spores (150,000 spores per ml) on upper surface of the leaves. The spores are collected from a 15-day-old culture and are suspended in a nutrient solution composed of: • 20 g/L of gelatin • 50 g/L of cane sugar • 2 g/L of NH4NO3 • 1 g/L of KH2PO4
The contaminated gherkin plants are settled for 5/7 days in a climatic room at 15-11° C. (day/night) and at 80% relative humidity.
Grading is carried out 5/7 days after the contamination, in comparison with the control plants. Under these conditions, good (at least 50%) or total protection is observed at a dose of 330 ppm with the following compounds: 38 and 57.

Row | Structure (SMILES) | protection (good, at least 50%, to total) (Peronospora brassicae) | protection (good, at least 50%, or total) [1] | protection (good, at least 50%, or total) (Botrytis cinerea)
1 | CCC(CNC(=O)c1cc(C)ccc1C)c1ncc(C(F)(F)F)cc1Cl (centres unmarked) [Compound 31] | at least 50% |  | 
2 | CCC(CNC(=O)c1ccccc1Br)c1ncc(C(F)(F)F)cc1Cl (centres unmarked) [Compound 40] |  | at least 50% | 
3 | CC(C)(CNC(=O)c1ccccc1C(F)(F)F)c1ncc(C(F)(F)F)cc1Cl [Compound 33] |  | at least 50% | 
4 | CC(Cc1ncc(C(F)(F)F)cc1Cl)NC(=O)c1ccccc1C(F)(F)F (centres unmarked) [Compound 38] |  | at least 50% | at least 50%
5 | CC(CNC(=O)c1ccccc1C(F)(F)F)c1ncc(C(F)(F)F)cc1Cl (centres unmarked) [Compound 32] |  | at least 50% | 
6 | CCCC(CNC(=O)c1ccccc1Br)c1ncc(C(F)(F)F)cc1Cl (centres unmarked) [Compound 43] |  | at least 50% | 
7 | CCC(CNC(=O)c1ccccc1C(F)F)c1ncc(C(F)(F)F)cc1Cl (centres unmarked) [Compound 41] | at least 50% |  | 
